# Assay results taken from the M2OR odorant receptor database.
# Only a part is listed here, and it is no random draw. Calls are pooled over several reports, among them a noisy single-well screen. The list shows a part of the results.
# Assays:
# Details in all cases: stereoisomer not certain
# OR5M11 (Homo sapiens) = molecular target: T1, OR5M11 (Homo sapiens) (UniProt Q96RB7)
# T1 sequence (whole entry): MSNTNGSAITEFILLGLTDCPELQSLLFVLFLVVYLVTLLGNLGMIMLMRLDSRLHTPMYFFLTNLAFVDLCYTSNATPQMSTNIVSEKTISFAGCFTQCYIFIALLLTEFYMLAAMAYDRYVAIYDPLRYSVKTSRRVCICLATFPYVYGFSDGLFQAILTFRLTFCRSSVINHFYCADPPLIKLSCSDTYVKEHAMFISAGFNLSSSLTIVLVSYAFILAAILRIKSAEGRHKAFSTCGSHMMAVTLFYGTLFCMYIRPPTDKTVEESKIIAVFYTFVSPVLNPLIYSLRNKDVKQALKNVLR
# Summary of the method: (§1)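 Values were gathered from published papers (main text and supplementary material), with extra details requested from the original authors when needed, and checked for typos and inconsistencies. Each receptor–molecule pair is called responsive (active) if the original authors judged the measured signal statistically different from baseline, and non-responsive (inactive) otherwise. Assay methods varied by source, often transient mammalian cell-line luciferase assays. Recorded details include cell line, G-protein, co-transfected protein and tags.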
# OR5M1 = test system: T2, OR5M1
# T2 sequence (whole entry): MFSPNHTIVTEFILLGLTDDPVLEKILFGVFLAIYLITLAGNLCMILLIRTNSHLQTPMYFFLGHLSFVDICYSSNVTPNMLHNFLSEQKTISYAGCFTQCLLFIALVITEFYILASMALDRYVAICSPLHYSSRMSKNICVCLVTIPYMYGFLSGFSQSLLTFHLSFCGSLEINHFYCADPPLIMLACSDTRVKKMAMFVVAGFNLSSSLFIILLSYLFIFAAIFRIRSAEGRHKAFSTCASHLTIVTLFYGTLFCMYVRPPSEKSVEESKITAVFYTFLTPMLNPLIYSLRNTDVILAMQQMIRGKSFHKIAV
# Summary of the method: as §1
# OR5M8 (Homo sapiens) = molecular target: T3, OR5M8 (Homo sapiens) (UniProt Q8NGP6)
# T3 sequence (whole entry): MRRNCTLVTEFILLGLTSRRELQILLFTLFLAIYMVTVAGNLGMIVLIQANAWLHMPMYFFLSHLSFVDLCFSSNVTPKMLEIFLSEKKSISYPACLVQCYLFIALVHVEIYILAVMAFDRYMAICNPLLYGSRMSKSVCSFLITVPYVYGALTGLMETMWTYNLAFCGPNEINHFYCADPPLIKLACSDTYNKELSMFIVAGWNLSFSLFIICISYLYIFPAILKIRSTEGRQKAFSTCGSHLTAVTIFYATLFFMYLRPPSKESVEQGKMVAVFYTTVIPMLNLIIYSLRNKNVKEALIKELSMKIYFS
# Summary of the method: as §1
# OR5M9 (Homo sapiens) = molecular target: T4, OR5M9 (Homo sapiens) (UniProt Q8NGP3)
# T4 sequence (whole entry): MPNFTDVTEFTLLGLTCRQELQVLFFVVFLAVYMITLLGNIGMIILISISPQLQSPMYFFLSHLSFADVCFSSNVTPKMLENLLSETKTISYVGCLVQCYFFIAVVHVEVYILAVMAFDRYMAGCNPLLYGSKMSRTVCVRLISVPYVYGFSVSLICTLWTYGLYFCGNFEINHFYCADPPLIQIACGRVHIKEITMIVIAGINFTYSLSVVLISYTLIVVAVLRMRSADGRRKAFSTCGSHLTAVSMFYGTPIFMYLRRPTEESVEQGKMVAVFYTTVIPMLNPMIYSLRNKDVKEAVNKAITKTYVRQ
# Summary of the method: as §1
# OR5MA = test system: T5, OR5MA
# T5 sequence (whole entry): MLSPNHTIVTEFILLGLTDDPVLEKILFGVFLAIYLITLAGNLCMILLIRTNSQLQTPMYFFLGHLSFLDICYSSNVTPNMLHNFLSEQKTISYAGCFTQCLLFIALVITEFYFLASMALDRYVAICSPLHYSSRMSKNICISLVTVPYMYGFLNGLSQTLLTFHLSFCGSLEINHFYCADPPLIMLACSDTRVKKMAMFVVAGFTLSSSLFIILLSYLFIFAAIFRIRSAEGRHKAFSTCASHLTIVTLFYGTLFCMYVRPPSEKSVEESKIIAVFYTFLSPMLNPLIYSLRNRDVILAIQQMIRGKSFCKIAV
# Summary of the method: as §1
# OR5P2 (Homo sapiens) = molecular target: T6, OR5P2 (Homo sapiens) (UniProt Q8WZ92)
# T6 sequence (whole entry): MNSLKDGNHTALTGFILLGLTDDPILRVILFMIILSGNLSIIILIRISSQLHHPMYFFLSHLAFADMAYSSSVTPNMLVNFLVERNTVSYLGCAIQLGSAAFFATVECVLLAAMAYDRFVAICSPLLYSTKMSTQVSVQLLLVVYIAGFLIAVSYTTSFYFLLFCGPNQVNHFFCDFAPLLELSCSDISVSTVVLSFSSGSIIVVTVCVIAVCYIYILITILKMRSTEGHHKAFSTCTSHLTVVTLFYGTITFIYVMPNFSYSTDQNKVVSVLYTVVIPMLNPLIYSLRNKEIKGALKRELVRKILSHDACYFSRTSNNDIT
# Summary of the method: as §1
# OR5P3 (Homo sapiens) = molecular target: T7, OR5P3 (Homo sapiens) (UniProt Q8WZ94)
# T7 sequence (whole entry): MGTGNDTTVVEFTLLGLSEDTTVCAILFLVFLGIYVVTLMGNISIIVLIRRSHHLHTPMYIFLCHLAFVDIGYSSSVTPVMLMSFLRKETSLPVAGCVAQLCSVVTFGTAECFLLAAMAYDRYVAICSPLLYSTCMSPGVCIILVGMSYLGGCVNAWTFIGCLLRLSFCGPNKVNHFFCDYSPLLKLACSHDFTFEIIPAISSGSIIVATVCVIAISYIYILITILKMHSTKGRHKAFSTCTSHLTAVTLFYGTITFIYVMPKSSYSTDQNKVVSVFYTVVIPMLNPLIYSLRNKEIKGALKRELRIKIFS
# Summary of the method: as §1
# OR5R1 = test system: T8, OR5R1
# T8 sequence (whole entry): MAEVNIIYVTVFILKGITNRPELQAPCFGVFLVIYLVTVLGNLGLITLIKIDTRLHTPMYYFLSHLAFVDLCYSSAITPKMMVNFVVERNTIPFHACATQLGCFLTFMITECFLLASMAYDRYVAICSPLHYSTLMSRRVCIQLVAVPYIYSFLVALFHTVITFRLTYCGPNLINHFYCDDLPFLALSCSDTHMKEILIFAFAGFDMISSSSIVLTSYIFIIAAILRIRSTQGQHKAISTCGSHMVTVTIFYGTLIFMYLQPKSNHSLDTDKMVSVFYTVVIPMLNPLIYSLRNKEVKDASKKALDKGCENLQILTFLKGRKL
# Summary of the method: as §1
# OR5T1 (Homo sapiens) = molecular target: T9, OR5T1 (Homo sapiens) (UniProt Q8NG75)
# T9 sequence (whole entry): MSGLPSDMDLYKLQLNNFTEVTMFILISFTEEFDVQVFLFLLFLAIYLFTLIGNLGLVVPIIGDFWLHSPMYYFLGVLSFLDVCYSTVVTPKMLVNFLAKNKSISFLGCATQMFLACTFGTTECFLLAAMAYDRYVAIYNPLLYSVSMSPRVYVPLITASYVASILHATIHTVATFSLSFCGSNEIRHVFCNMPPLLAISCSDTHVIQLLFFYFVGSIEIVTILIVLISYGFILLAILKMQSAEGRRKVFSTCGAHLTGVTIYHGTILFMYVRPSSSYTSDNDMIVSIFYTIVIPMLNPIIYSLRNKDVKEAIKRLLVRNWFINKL
# Summary of the method: as §1
# OR5T1 = test system: T10, OR5T1
# T10 sequence (whole entry): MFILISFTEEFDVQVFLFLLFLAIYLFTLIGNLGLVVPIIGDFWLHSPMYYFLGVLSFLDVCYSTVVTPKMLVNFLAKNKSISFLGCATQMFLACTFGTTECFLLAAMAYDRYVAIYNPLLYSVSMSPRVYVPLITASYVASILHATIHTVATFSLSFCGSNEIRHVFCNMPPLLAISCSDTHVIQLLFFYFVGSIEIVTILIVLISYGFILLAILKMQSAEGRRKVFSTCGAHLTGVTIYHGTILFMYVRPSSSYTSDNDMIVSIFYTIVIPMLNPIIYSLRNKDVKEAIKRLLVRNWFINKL
# Summary of the method: as §1
# OR5T2 [1] = test system: T11, OR5T2
# T11 sequence (whole entry): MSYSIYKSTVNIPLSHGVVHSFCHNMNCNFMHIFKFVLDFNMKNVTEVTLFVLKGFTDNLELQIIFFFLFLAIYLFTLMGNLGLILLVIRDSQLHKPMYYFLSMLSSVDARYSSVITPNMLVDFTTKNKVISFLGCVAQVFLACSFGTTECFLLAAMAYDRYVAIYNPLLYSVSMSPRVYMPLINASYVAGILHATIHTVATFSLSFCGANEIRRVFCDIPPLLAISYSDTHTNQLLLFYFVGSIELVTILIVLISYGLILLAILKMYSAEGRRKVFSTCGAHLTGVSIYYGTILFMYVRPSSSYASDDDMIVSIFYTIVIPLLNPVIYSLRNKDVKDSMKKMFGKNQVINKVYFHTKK
# Summary of the method: as §1
# OR5T2 [2] = test system: T12, OR5T2; remark: listed apart in the source
# T12 sequence (whole entry): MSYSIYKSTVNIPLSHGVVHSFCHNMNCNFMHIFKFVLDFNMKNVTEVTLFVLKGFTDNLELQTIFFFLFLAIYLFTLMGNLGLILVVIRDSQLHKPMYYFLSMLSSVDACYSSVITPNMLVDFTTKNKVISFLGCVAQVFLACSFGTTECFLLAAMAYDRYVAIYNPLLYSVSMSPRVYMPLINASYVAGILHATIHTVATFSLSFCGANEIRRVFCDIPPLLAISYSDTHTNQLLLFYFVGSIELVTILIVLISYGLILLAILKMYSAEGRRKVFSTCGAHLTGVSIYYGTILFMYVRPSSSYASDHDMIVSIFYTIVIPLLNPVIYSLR
# Summary of the method: as §1
# OR5T3 = test system: T13, OR5T3
# T13 sequence (whole entry): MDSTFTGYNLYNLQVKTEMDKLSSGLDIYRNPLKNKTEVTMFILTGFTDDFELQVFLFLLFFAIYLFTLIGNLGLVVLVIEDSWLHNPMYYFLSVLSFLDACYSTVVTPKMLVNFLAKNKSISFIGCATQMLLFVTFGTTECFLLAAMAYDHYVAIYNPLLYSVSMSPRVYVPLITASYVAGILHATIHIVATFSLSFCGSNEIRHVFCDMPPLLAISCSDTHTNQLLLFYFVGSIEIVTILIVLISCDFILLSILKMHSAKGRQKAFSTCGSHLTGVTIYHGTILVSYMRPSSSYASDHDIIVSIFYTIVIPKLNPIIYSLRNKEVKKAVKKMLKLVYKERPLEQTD
# Summary of the method: as §1
# OR5V1 (Homo sapiens) = molecular target: T14, OR5V1 (Homo sapiens) (UniProt Q9UGF6)
# T14 sequence (whole entry): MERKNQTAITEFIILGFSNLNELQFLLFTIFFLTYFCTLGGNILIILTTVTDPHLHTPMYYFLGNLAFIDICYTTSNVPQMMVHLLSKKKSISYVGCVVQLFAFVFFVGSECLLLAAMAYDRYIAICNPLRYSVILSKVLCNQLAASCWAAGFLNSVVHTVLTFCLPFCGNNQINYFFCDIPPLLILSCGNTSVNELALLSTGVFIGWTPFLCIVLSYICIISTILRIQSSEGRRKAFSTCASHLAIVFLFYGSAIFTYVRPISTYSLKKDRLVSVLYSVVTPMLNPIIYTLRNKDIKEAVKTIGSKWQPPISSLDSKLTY
# Summary of the method: as §1
# OR5W2 = test system: T15, OR5W2
# T15 sequence (whole entry): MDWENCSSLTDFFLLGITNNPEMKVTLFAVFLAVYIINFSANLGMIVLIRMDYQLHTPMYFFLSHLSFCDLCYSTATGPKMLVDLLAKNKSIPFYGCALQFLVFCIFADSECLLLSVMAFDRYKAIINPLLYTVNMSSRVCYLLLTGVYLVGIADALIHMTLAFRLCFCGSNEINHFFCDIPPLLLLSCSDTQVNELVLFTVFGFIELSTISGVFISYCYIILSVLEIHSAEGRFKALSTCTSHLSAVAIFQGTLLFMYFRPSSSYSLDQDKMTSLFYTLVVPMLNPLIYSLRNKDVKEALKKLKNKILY
# Summary of the method: as §1
# OR6A2 (Homo sapiens) = molecular target: T16, OR6A2 (Homo sapiens) (UniProt O95222)
# T16 sequence (whole entry): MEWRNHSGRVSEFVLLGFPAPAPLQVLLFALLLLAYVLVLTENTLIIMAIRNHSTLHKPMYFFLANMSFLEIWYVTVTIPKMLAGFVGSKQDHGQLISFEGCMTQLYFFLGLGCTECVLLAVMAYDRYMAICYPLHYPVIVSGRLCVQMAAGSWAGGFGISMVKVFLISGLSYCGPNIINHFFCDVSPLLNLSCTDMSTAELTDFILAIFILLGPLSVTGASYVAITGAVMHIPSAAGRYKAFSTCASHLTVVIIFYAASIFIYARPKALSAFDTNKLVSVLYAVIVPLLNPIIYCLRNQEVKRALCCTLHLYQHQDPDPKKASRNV
# Summary of the method: as §1
# OR5M3 (Homo sapiens) = molecular target: T17, OR5M3 (Homo sapiens) (UniProt Q8NGP4)
# T17 sequence (whole entry): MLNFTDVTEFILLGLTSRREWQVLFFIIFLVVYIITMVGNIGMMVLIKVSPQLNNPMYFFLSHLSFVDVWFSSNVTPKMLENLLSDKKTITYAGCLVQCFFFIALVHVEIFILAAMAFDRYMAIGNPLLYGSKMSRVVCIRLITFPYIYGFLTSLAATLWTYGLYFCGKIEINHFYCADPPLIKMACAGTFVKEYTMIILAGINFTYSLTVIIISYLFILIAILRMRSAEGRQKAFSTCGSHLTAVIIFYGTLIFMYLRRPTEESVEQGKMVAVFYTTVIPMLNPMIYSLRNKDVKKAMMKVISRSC
# Summary of the method: as §1
SMILES,odorant receptor agonist call (OR5M11 (Homo sapiens)),odorant receptor agonist call (OR5M1),odorant receptor agonist call (OR5M8 (Homo sapiens)),odorant receptor agonist call (OR5M9 (Homo sapiens)),odorant receptor agonist call (OR5MA),odorant receptor agonist call (OR5P2 (Homo sapiens)),odorant receptor agonist call (OR5P3 (Homo sapiens)),odorant receptor agonist call (OR5R1),odorant receptor agonist call (OR5T1 (Homo sapiens)),odorant receptor agonist call (OR5T1),odorant receptor agonist call (OR5T2 [1]),odorant receptor agonist call (OR5T2 [2]),odorant receptor agonist call (OR5T3),odorant receptor agonist call (OR5V1 (Homo sapiens)),odorant receptor agonist call (OR5W2),odorant receptor agonist call (OR6A2 (Homo sapiens)),odorant receptor agonist call (OR5M3 (Homo sapiens))
CCCCCCCOC(C)=O,inactive,inactive,inactive,inactive,inactive,inactive,inactive,inactive,inactive,inactive,inactive,inactive,inactive,inactive,inactive,inactive,–
O=CCc1ccccc1,active,inactive,inactive,inactive,inactive,inactive,inactive,inactive,inactive,inactive,inactive,inactive,inactive,inactive,inactive,inactive,inactive
